Key:
[1] = test system: calf-thymus DNA (CT DNA); assay: DNA-binding study by UV–vis absorption spectroscopy; settings: + hyperchromism / − hypochromism
[2] = test system: CT DNA; assay: Study of the DNA-interaction by cyclic voltammetry; format: binding, calf; settings: shift upon CT DNA
Experimental: Cyclic voltammetry was used to study the interaction of the complexes with CT DNA. An intercalative interaction will induce a positive shift for the electrochemical potential(s) of metal oxidation/reduction, whereas, in the case of electrostatic interaction, a negative shift in the potential(s) may occur. The cyclic voltammograms of the complexes in a 1:2 DMSO:buffer solution (0.33 mM) were recorded in the absence and presence of the CT DNA solution (Figure S13). The predominant electrochemical feature for all complexes is a positive shift in the potential in the presence of CT DNA (ΔEpc/a = (–30)–(+127) mV). Consequently, the intercalative nature of the interaction of the complexes with DNA can be inferred from the presented data.
In order to evaluate further the redox behavior of the complexes, the corresponding equilibrium constants were calculated by determining the ratio Kr/Kox in accordance to Equation (S6), where Kox and Kr are the DNA-binding constants for the oxidized and reduced form, respectively, of the metal ions. For all complexes, the Kr/Kox ratio is close to or above 1 (Table 7), showing the selective binding of DNA to the […] form of the complexes. […]
S3.3 Study of the DNA –interaction by cyclic vol ta mmetry
Cyclic voltammetr y can be also used in order to calculate the corresponding equilibrium constant for the redox process. The ratio of the DNA–binding constants for the reduced (K r) and oxidized forms (Kox) of t he complex es (Kr/Kox) w as calculat ed according t o eq. S6:
Δ = = 0.059 × lo gEE E K oxoo o (eq. S6) […]
where Eo and Eo are the formal potentials of M(II)/M(I) redox couple in the fully bound and […]
free complexes, respectivel y. Kox and Kr are the binding constants for the binding of the oxidized and reduced species to DNA, respectivel y [S8] . […]

| SMILES | Band (ΔA/A0, Δλ): UV–vis band λmax, percentage of hyper-/hypochromism, blue/red shift upon addition of DNA [1] | ΔEpa = Epa(b) − Epa(f) [2] | ΔEpc = Epc(b) − Epc(f) [2] |
| --- | --- | --- | --- |
| CN1CCN(c2c(F)cc3c(=O)c(C(=O)[O-])cn(CCF)c3c2F)CC1.CN1CCN(c2c(F)cc3c(=O)c(C(=O)[O-])cn(CCF)c3c2F)CC1.[Mn+2].c1ccc(Nc2ccccn2)nc1 [complex 10, [Mn(flrx)2(bipyam)]] | 271 (+3, +1); 317 (−5, −1) nm (%, nm) | −13 mV | +11 mV |
| CN1CCN(c2c(F)cc3c(=O)c(C(=O)[O-])cn(CCF)c3c2F)CC1.CN1CCN(c2c(F)cc3c(=O)c(C(=O)[O-])cn(CCF)c3c2F)CC1.CO.CO.[Co+2] [complex 4, [Co(flrx)2(MeOH)2]] | 289 (−8, −4); 330 (−7, −6) nm (%, nm) | +28 mV | −11 mV |
| CN1CCN(c2c(F)cc3c(=O)c(C(=O)[O-])cn(CCF)c3c2F)CC1.CN1CCN(c2c(F)cc3c(=O)c(C(=O)[O-])cn(CCF)c3c2F)CC1.[Cu+2] [complex 1, [Cu(flrx)2]] | 294 (−15, −7); 335 (−24, −10) nm (%, nm) | +42 mV | −10 mV |
| CN1CCN(c2c(F)cc3c(=O)c(C(=O)[O-])cn(CCF)c3c2F)CC1.CN1CCN(c2c(F)cc3c(=O)c(C(=O)[O-])cn(CCF)c3c2F)CC1.[Mn+2].c1ccc(-c2ccccn2)nc1 [complex 9, [Mn(flrx)2(bipy)]] | 286 (+4, −1); 334 (−11, −10) nm (%, nm) | −20 mV | +17 mV |
| CN1CCN(c2c(F)cc3c(=O)c(C(=O)[O-])cn(CCF)c3c2F)CC1.CN1CCN(c2c(F)cc3c(=O)c(C(=O)[O-])cn(CCF)c3c2F)CC1.[Co+2].c1ccc(-c2ccccn2)nc1 [complex 15, [Co(flrx)2(bipy)]] | 288 (−3, −3); 331 (−8, −7) nm (%, nm) | −8 mV | +6 mV |
| CN1CCN(c2c(F)cc3c(=O)c(C(=O)[O-])cn(CCF)c3c2F)CC1.CN1CCN(c2c(F)cc3c(=O)c(C(=O)[O-])cn(CCF)c3c2F)CC1.O.O.[Mn+2] [complex 2, [Mn(flrx)2(H2O)2]] | 291 (−22, −6); 322 (−2, +4) nm (%, nm) | −11 mV | +6 mV |
| CN1CCN(c2c(F)cc3c(=O)c(C(=O)[O-])cn(CCF)c3c2F)CC1.CN1CCN(c2c(F)cc3c(=O)c(C(=O)[O-])cn(CCF)c3c2F)CC1.[Zn+2].c1ccc(Nc2ccccn2)nc1 [complex 13, [Zn(flrx)2(bipyam)]] | 291.2 (−17, −7); 322 (−5, −1) nm (%, nm) |  |  |
| CN1CCN(c2c(F)cc3c(=O)c(C(=O)[O-])cn(CCF)c3c2F)CC1.CN1CCN(c2c(F)cc3c(=O)c(C(=O)[O-])cn(CCF)c3c2F)CC1.[Ni+2].c1ccc(Nc2ccccn2)nc1 [complex 18, [Ni(flrx)2(bipyam)]] | 290 (−10, −5); 323 (−6, −3) nm (%, nm) | +11 mV | +6 mV |
| CN1CCN(c2c(F)cc3c(=O)c(C(=O)[O-])cn(CCF)c3c2F)CC1.CN1CCN(c2c(F)cc3c(=O)c(C(=O)[O-])cn(CCF)c3c2F)CC1.[Ni+2].c1cnc2c(c1)ccc1cccnc12 [complex 19, [Ni(flrx)2(phen)]] | 288.4 (−7, −4); 333 (−15, −8) nm (%, nm) | +29 mV | −12 mV |
| CN1CCN(c2c(F)cc3c(=O)c(C(=O)[O-])cn(CCF)c3c2F)CC1.CN1CCN(c2c(F)cc3c(=O)c(C(=O)[O-])cn(CCF)c3c2F)CC1.CO.CO.[Zn+2] [complex 3, [Zn(flrx)2(MeOH)2]] | 334 (−17, −1) nm (%, nm) |  |  |
| CN1CCN(c2c(F)cc3c(=O)c(C(=O)[O-])cn(CCF)c3c2F)CC1.[Cl-].[Cu+2].c1ccc(Nc2ccccn2)nc1 [complex 7, [Cu(flrx)(bipyam)Cl]] | 294 (−18, −12); 316 (−8, 0) nm (%, nm) | +126 mV | +19 mV |
| CN1CCN(c2c(F)cc3c(=O)c(C(=O)[O-])cn(CCF)c3c2F)CC1.CN1CCN(c2c(F)cc3c(=O)c(C(=O)[O-])cn(CCF)c3c2F)CC1.CO.CO.[Ni+2] [complex 5, [Ni(flrx)2(MeOH)2]] | 289 (−8, −3); 336 (−21, −10) nm (%, nm) | −6 mV | +5 mV |
| CN1CCN(c2c(F)cc3c(=O)c(C(=O)[O-])cn(CCF)c3c2F)CC1.[Cl-].[Cu+2].c1ccc(-c2ccccn2)nc1 [complex 6, [Cu(flrx)(bipy)Cl]] | 294 (−21, −8); 314 (−38,−4); 332 (−11, −9) nm (%, nm) | +127 mV | −30 mV |
| CN1CCN(c2c(F)cc3c(=O)c(C(=O)[O-])cn(CCF)c3c2F)CC1.[Cl-].[Cu+2].c1cnc2c(c1)ccc1cccnc12 [complex 8, [Cu(flrx)(phen)Cl]] | 293 (−31, −20); 326 (+1, −2) nm (%, nm) | +77 mV | +5 mV |
| CN1CCN(c2c(F)cc3c(=O)c(C(=O)[O-])cn(CCF)c3c2F)CC1.CN1CCN(c2c(F)cc3c(=O)c(C(=O)[O-])cn(CCF)c3c2F)CC1.[Zn+2].c1ccc(-c2ccccn2)nc1 [complex 12, [Zn(flrx)2(bipy)]] | 290 (−15, −4); 332 (−7, −6) nm (%, nm) |  |  |
| CN1CCN(c2c(F)cc3c(=O)c(C(=O)[O-])cn(CCF)c3c2F)CC1.CN1CCN(c2c(F)cc3c(=O)c(C(=O)[O-])cn(CCF)c3c2F)CC1.[Mn+2].c1cnc2c(c1)ccc1cccnc12 [complex 11, [Mn(flrx)2(phen)]] | 288 (−7, −4); 331 (−8, −6) nm (%, nm) | +2 mV | +6 mV |
| CN1CCN(c2c(F)cc3c(=O)c(C(=O)[O-])cn(CCF)c3c2F)CC1.CN1CCN(c2c(F)cc3c(=O)c(C(=O)[O-])cn(CCF)c3c2F)CC1.[Co+2].c1ccc(Nc2ccccn2)nc1 [complex 16, [Co(flrx)2(bipyam)]] | 287 (−5, −3); 323 (−6, −2) nm (%, nm) | +21 mV | −12 mV |
| CN1CCN(c2c(F)cc3c(=O)c(C(=O)[O-])cn(CCF)c3c2F)CC1.CN1CCN(c2c(F)cc3c(=O)c(C(=O)[O-])cn(CCF)c3c2F)CC1.[Co+2].c1cnc2c(c1)ccc1cccnc12 [complex 17, [Co(flrx)2(phen)]] | 286.6 (−2,− 3); 333 (0, −9) nm (%, nm) | +5 mV | +6 mV |
| CN1CCN(c2c(F)cc3c(=O)c(C(=O)[O-])cn(CCF)c3c2F)CC1.CN1CCN(c2c(F)cc3c(=O)c(C(=O)[O-])cn(CCF)c3c2F)CC1.[Zn+2].c1cnc2c(c1)ccc1cccnc12 [complex 14, [Zn(flrx)2(phen)]] | 288 (−1, −1); 332 (−10, −7) nm (%, nm) |  |  |
